One series deals with GFP (UniProt P42212). As to the kind of experiment: binding assay. To be noted: Southwestern blot; no interaction; purified recombinant protein; label: 5'-32P; single-stranded DNA.
Series [1] has as its system T1, pSu9-MS2 (pSu9-CP) expressed in yeast (Phage MS2).
T1 sequence: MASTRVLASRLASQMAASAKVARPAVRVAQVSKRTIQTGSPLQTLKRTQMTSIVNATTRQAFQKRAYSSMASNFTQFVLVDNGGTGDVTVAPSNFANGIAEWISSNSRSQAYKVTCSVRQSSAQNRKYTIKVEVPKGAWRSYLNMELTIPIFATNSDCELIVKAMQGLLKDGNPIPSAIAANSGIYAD
Nature of the series: activity in cells. The note with it: RNA detected by RT-PCR in mitochondria of yeast; not with MS2 lacking pSu9; protein in cells; protein details: Myc tag, pSu9 mitochondrial targeting sequence.

By UniProt entry, the sequences of proteins in these tests, tags left out. Where a name states a change or a piece, a line headed by the entry shows the natural chain unless it says otherwise.
UniProt P00375: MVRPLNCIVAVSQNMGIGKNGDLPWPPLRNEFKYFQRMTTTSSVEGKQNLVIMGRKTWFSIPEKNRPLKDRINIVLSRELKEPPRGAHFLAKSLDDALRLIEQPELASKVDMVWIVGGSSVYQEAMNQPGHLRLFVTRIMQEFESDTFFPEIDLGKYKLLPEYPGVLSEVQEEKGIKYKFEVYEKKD

Series [2] concerns the target T2, pSu9-DHFR (mouse DHFR fused to Neurospora crassa Su9 presequence) (Mus musculus) (UniProt P00375).
T2 sequence (limits assumed): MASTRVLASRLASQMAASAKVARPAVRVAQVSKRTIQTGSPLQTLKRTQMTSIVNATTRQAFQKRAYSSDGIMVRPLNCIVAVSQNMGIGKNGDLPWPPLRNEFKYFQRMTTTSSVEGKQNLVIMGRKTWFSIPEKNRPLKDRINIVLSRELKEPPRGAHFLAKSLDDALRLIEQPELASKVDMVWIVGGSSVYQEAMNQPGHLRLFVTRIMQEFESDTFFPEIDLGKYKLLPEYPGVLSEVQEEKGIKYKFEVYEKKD
Nature of the series: activity assay. The note with it: import into isolated potato mitochondria, transcript matured; purified recombinant protein; label: 32P-UTP.

For part of these data: Protein sequences can lack the tags named with them. For part of these data: Construct, isoform or probe ends are uncertain for at least one entry. For part of these data: Negatives hold for the conditions tested.

In the case of “GGGGATGTAGCTCATATGGTAGAGCGCTCGCTTTGCATGCGAGAGGCACAGGGTTCGATTCCCTGCATCTCCACCA [tRNAAla-sequence DNA oligonucleotide]”, the binding result with GFP is “no binding”. For the sequence “AUAAUGUUAUAUAAGUAAUAAUAUAAUAAAAUAUCCUAAGGUACCUAAUUGCCUAGAAAACAUGAGGAUCACCCAUGUCUGCAGGUCGACUCUAGAAAACAUGAGGAUCACCCAUGUCUGCAGUAUUCCCGGG [anticox-2SL RNA]”, the functional effect result in series [1] was “active”. In the case of “GCGAAUUGGAGCUCCACCGCGGUGGCGGCGCUCUAGAACUAGUGGAUCCAAUAGCGAGUAUAGACGUGUCUAAGGGCGAGCAUAACCCAAUAGGUCAGAGUGUCAGAUUGUGAAUUCGAAAACACGGGUUCGAAUCCCGUUAUUCGCCGCACCCCAUUGUCGACCAGGCCCUCUCCCCCCUAUUAAAUAAGUAAAGCGAUGGCCCCGGCUUUCAAUACGUUACAAUCUAUUUAUUCCCCUAAAGGAUCCCCCCGGGCUGCAGG [larch mitochondrial tRNAHis precursor (edited)]”, the functional effect result in series [2] was “active”.

The values above are taken from patent US20120110693.
